TEAD-luciferase reporter activity data for 28 compounds are collected here from the supplement of paper PMC10735217.

Structures can show the parent of a compound that is named as a salt. Some of the results follow. Single values are uncertain here, since repeats match poorly.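 Human kidney-derived cells stably carry a construct in which eight TEAD-binding elements drive luciferase, measured by luminescence in a drug-repurposing library screen. A hit is any compound whose signal exceeds the plate mean by more than five robust Z scores.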

This assay relates to HEK293A TEAD-LUC reporter. Nature of the assay: TEAD-luciferase reporter activity (YAP activation), robust Z score vs plate; higher = stronger YAP/TEAD activation. Particulars: 24 h.

For the compound `COc1cc(CC2c3cc(OC)c(OC)cc3CC[NH+]2C)c(Oc2cc3c(cc2OC)-c2c(OC)c(OC)cc4c2C(C3)[NH+](C)CC4)cc1OC` (stereo unspecified) [Thalicarpine], the TEAD-luciferase reporter activity is inactive: -2.06 (compound concentration: 200 nM), inactive: -2.31 (compound concentration: 2 uM) and inactive: -1.26 (compound concentration: 10 uM).

Regarding `CCCCCCOC(=O)C1(O)CC2OC1(C)n1c3ccccc3c3c4c(c5c6ccccc6n2c5c31)C(=O)NC4` (stereo unspecified), the TEAD-luciferase reporter activity is inactive: -0.759 (compound concentration: 200 nM), active: 6.53 (compound concentration: 2 uM) and inactive: 1.75 (compound concentration: 10 uM).

For the compound `COc1ccc2nc([S+]([O-])Cc3nccc(N4CCOCC4)c3Cl)[nH]c2c1` (stereo unspecified), the TEAD-luciferase reporter activity runs as follows: (compound concentration: 200 nM) inactive: -0.394; (compound concentration: 2 uM) inactive: 0.725; (compound concentration: 10 uM) inactive: -1.39.

Turning to `COc1c(N2CCC(CN)(CF)C2)c(F)cc2c(=O)c(C(=O)O)cn(C3CC3)c12` (stereo unspecified), the TEAD-luciferase reporter activity is inactive: -0.476 (compound concentration: 200 nM), inactive: -0.354 (compound concentration: 2 uM) and inactive: 0.0529 (compound concentration: 10 uM).

Regarding `CC(C)C(=O)N1Cc2ccccc2CC2(CCCCN2CC2CCNC2)C1` (stereo unspecified), the TEAD-luciferase reporter activity runs as follows: (compound concentration: 200 nM) inactive: -2.05; (compound concentration: 10 uM) inactive: 0.091.

`CC(C)(C)OC(=O)N1CCCC1CO` (stereo unspecified): the TEAD-luciferase reporter activity runs as follows: (compound concentration: 200 nM) inactive: -1.43; (compound concentration: 2 uM) inactive: 1.09; (compound concentration: 10 uM) inactive: -1.29.

As to `CCn1cc(C(=O)O)c(=O)c2ccc(C)nc21`, the TEAD-luciferase reporter activity is inactive: 0.376 (compound concentration: 200 nM) and inactive: -2.15 (compound concentration: 10 uM).

For the compound `CCn1cc(C(=O)O)c(=O)c2ccc(C)nc21` [Nalidixic acid], the TEAD-luciferase reporter activity (compound concentration: 2 uM) was inactive: -1.35.

In the case of `N#Cc1cn(-c2ccc(C(=O)O)c(O)c2)c2cc(F)c(F)cc12`, the TEAD-luciferase reporter activity reads like this: (compound concentration: 200 nM) inactive: -1.03; (compound concentration: 2 uM) inactive: -0.36; (compound concentration: 10 uM) inactive: -0.351.

In the case of `CC(Cc1c[nH]c2ccccc12)(NC(=O)OC1C2CC3CC(C2)CC1C3)C(=O)N[C@H]1CCCC[C@@H]1O` (stereo partly specified), the TEAD-luciferase reporter activity is, setting by setting: (compound concentration: 200 nM) inactive: -0.85; (compound concentration: 2 uM) inactive: -1.03; (compound concentration: 10 uM) inactive: -0.599.

Consider `Nc1nc(O)c2sc(=O)n([C@@H]3O[C@H](CO)C(O)C3O)c2n1` (stereo partly specified) [Isatoribine], for which the TEAD-luciferase reporter activity by setting is: (compound concentration: 200 nM) inactive: -1; (compound concentration: 2 uM) inactive: 0.841; (compound concentration: 10 uM) active: 9.33.

Regarding `CC#CCn1c(N2CCC[C@H](N)C2)nc2c1c(=O)n(Cc1nc(C)c3ccccc3n1)c(=O)n2C`, the TEAD-luciferase reporter activity (compound concentration: 2 uM) was inactive: -0.536.

As to `CC#CCn1c(N2CCC[C@H](N)C2)nc2c1c(=O)n(Cc1nc(C)c3ccccc3n1)c(=O)n2C` [Linagliptin (BI-1356)], the TEAD-luciferase reporter activity runs as follows: (compound concentration: 200 nM) inactive: 1.74; (compound concentration: 10 uM) inactive: -1.08.

With `COc1ccccc1N1CCN(CC(C(=O)NC(C)(C)C)c2ccccc2)CC1` (stereo unspecified), the TEAD-luciferase reporter activity was inactive: -0.452 (compound concentration: 200 nM), inactive: 0.234 (compound concentration: 2 uM) and inactive: 2.09 (compound concentration: 10 uM).

In the case of `Cc1cn(-c2cc(NC(=O)c3ccc(C)c(Nc4nccc(-c5cnccn5)n4)c3)cc(C(F)(F)F)c2)cn1` [Radotinib], the TEAD-luciferase reporter activity by setting is: (compound concentration: 200 nM) inactive: -0.919; (compound concentration: 2 uM) inactive: 0.492; (compound concentration: 10 uM) inactive: 1.9.

For the compound `CCOC(=O)[C@H](CCc1ccccc1)N[C@@H](C)C(=O)N1C(=O)N(C)C[C@H]1C(=O)O` [imidapril hydrochloride, Ark], the TEAD-luciferase reporter activity reads like this: (compound concentration: 200 nM) inactive: -2.47; (compound concentration: 2 uM) inactive: -1.51; (compound concentration: 10 uM) inactive: 1.06.

In the case of `CC(C)=CCC/C(C)=C/C=C/C(C)=C/C=C/C(C)=C/C=C/C=C(C)/C=C/C=C(C)/C=C/C=C(\C)CCC=C(C)C` [Lycopene], the TEAD-luciferase reporter activity was inactive: 0.759 (compound concentration: 200 nM), inactive: -0.816 (compound concentration: 2 uM) and active: 6.51 (compound concentration: 10 uM).

As for `CCOC(=O)C1=C(COCCOCCN)NC(C)=C(C(=O)OC)C1c1cccc(Cl)c1Cl` (stereo unspecified), the TEAD-luciferase reporter activity was inactive: -0.828 (compound concentration: 200 nM), inactive: -0.426 (compound concentration: 2 uM) and inactive: 1.53 (compound concentration: 10 uM).

Consider `O=C1c2ccccc2C(=O)C1c1ccccc1` [Phenindione], for which the TEAD-luciferase reporter activity (compound concentration: 2 uM) was inactive: 0.595.

Regarding `O=C1c2ccccc2C(=O)C1c1ccccc1`, the TEAD-luciferase reporter activity (compound concentration: 200 nM) was inactive: -1.67 and the TEAD-luciferase reporter activity (compound concentration: 10 uM) is inactive: -0.688.

As for `N#Cc1ccc(Oc2ccc3c(c2)COB3O)cc1`, the TEAD-luciferase reporter activity (compound concentration: 200 nM) is inactive: 0.617, the TEAD-luciferase reporter activity (compound concentration: 2 uM) is inactive: -1.59 and the TEAD-luciferase reporter activity (compound concentration: 10 uM) is inactive: 0.105.

As for `CC1=CCC[C@H]2[C@](C)(Cc3cc(O)ccc3O)[C@@H](C)CC[C@]12C` [Avarol], the TEAD-luciferase reporter activity is inactive: 0.925 (compound concentration: 200 nM), inactive: 0.89 (compound concentration: 2 uM) and inactive: 1.52 (compound concentration: 10 uM).

As for `COc1ccc2c(c1)-c1nc(-c3ccncc3)[nH]c1CCC2`, the TEAD-luciferase reporter activity (compound concentration: 200 nM) was inactive: -2.05, the TEAD-luciferase reporter activity (compound concentration: 2 uM) was inactive: -1.15 and the TEAD-luciferase reporter activity (compound concentration: 10 uM) is inactive: 2.32.

Turning to `CC(C)[C@H]1C(=O)N[C@@H](CCCNC(=N)N)C(=O)NCC(=O)N[C@@H](CC(=O)O)C(=O)N[C@H](Cc2ccccc2)C(=O)N1C` [Cilengitide], the TEAD-luciferase reporter activity (compound concentration: 200 nM) was inactive: -0.832, the TEAD-luciferase reporter activity (compound concentration: 2 uM) is inactive: -2.65 and the TEAD-luciferase reporter activity (compound concentration: 10 uM) is inactive: -2.92.

Take `COc1ccccc1N1CCN(C(=O)c2ccc(CN3CCCCC3)cc2)CC1`: the TEAD-luciferase reporter activity is inactive: -0.604 (compound concentration: 200 nM), inactive: -0.817 (compound concentration: 2 uM) and inactive: -0.128 (compound concentration: 10 uM).

With `CCOCN1C2=C(C(=O)Nc3ccccc3F)C(=O)CCN2c2ccc(F)cc21`, the TEAD-luciferase reporter activity by setting is: (compound concentration: 200 nM) inactive: 0.323; (compound concentration: 2 uM) inactive: -0.0838; (compound concentration: 10 uM) inactive: -1.54.

Regarding `O=C(c1ccc(OCCN2CCCCC2)cc1)c1c(-c2ccc(O)cc2)sc2cc(O)ccc12`, the TEAD-luciferase reporter activity (compound concentration: 200 nM) was inactive: 0.00704 and the TEAD-luciferase reporter activity (compound concentration: 10 uM) is inactive: -0.596.

For the compound `O=C(c1ccc(OCCN2CCCCC2)cc1)c1c(-c2ccc(O)cc2)sc2cc(O)ccc12` [raloxifene hydrochloride], where the note is “compound concentration: 2 uM”, the TEAD-luciferase reporter activity was inactive: -0.663.
